At least one compound was matched to its structure with a doubt left.
Assay: Thermogravimetric analysis (TGA) mass loss of budesonide particles
Assay type: physicochemical
Settings: heating 25° C./min to 300° C., FIG. 12

CCCC1O[C@@H]2C[C@H]3[C@@H]4CCC5=CC(=O)C=C[C@]5(C)[C@H]4[C@@H](O)C[C@]3(C)[C@]2(C(=O)CO)O1 (some centres unmarked) [budesonide, Budesonide]
mass loss (TGA) (initial spray dried material, not treated with ultrasound): 1.042%
mass loss (TGA) (ultrasound treated spray dried material): 0.018%
